Values joined by “and” are separate entries in the source; they are usually repeats but may differ in a detail not shown here. Equal values may be shown once. Among all 320,000 compounds or so, about 22,000 (6.9%) were called active. Inconclusive results, whose numbers are uncertain, are shown with a selection of clear calls. The call rests on the fitted dose curve; in most records, active means well fitted inhibition curve with a large enough effect; inconclusive means small, poorly fitted or top-dose-only effect, or another doubt; inactive means no such curve, though single readings can be large or run the other way. Where the call is inconclusive, the potency comes from a doubtful curve fit.
Experiment: Primary qHTS for delayed death inhibitors of the malarial parasite plastid, 96 hour incubation
Settings: P. falciparum luciferase reporter growth; series mostly up to 28.7 µM
Method in brief: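 Cell-based qHTS: luciferase-tagged P. falciparum in erythrocytes (2% hematocrit, 0.05% parasitemia final) incubated with compounds for 96 hours, 37 C, 5% CO2; luciferase detection reagent then added and luminescence measured.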
With CC1CCN(C(=O)c2ccc(NC(=O)CC3SC(N4CCCC4)=NC3=O)cc2)CC1 (stereo not given) the Potency was inconclusive: 5.86 µM [inhibitor, partial curve, poor fit]. For O=C(O)c1cccc(Cn2cccn2)c1, the Potency was inconclusive: 13.1 µM [inhibitor, partial curve]. For Cc1ccc(CNC(=O)c2ccc(Cn3cc(-c4ccc(C)cc4)nc3-c3ccncc3)cc2)cc1, the Potency was inconclusive: 11.7 µM [inhibitor, single point]. With CCc1ccc(NS(=O)(=O)c2cc3[nH]c(=O)c(=O)[nH]c3cc2C)cc1 the Potency was inconclusive: 13.1 µM [inhibitor, partial curve, poor fit]. With COc1ccc(Nc2nc(OC)nc(OC)n2)cc1 the Potency was inconclusive: 8.28 µM [inhibitor, partial curve, poor fit]. With COc1ccc(C(=O)Nc2ccc(-c3cn4ccsc4n3)cc2)cc1S(=O)(=O)N1CCOCC1 the Potency was active: 0.329 µM. For COCCn1cnc2c1c(=O)[nH]c(=O)n2Cc1ccccc1, the Potency was inconclusive: 10.4 µM [inhibitor, single point]. For Cc1cc(C(=O)N/N=C/c2ccncc2)c(C)o1, the Potency was “inactive”. With CC(=O)Nc1ccc(OC(=O)CC2SC(=O)NC2=O)cc1 (stereo not given) the Potency was “inactive”. For Cc1cccc(-c2c3c(=O)n(C)c(=O)n(C)c3c3cccnn23)c1, the Potency was “inactive”. With Cc1ccc(-c2cc(C(=O)Nc3cccnc3)c3ccccc3n2)o1 the Potency was active: 4.65 µM. With O=C(CCc1nc2sc3c(c2c(=O)[nH]1)CCCC3)NCCc1ccc(F)cc1 the Potency was inconclusive: 13.1 µM [inhibitor, partial curve]. In the case of CCCCn1c(N)c(N(CC(C)C)C(=O)c2ccc(N(C)S(=O)(=O)c3ccc(C)cc3)cc2)c(=O)[nH]c1=O, the Potency is reported as inconclusive: 18.5 µM [inhibitor, single point]. In the case of COc1ccc2c(C)cc3nnnn3c2c1, the Potency is reported as “inactive”. With CCOc1ccc(NC(=O)CN(C)C(=O)c2ccccc2OCc2c(C)noc2C)cc1OCC the Potency was “inactive”. In the case of O=C(NNS(=O)(=O)c1ccc(Cl)cc1)C1CCN(Cc2ccccc2)CC1, the Potency is reported as “inactive”. With Cc1cccn2c(=O)c(C=C(C#N)C#N)c(N3CCN(C)CC3)nc12 the Potency was active: 7.38 µM. With CC12CCC(c3nnc(SCC(=O)Nc4cccc5ccccc45)nc31)C2(C)C (stereo not given) the Potency was inconclusive: 8.28 µM [inhibitor, partial curve, poor fit]. For CCOCCCNC(=O)c1ccc2c(c1)N(Cc1ccccc1)C(=O)CS2=O (stereo not given), the Potency was inconclusive: 18.5 µM [inhibitor, partial curve, poor fit]. With CCc1nc2c(cnn2-c2ccc(Cl)cc2)c(=O)n1-c1ccc(OC)cc1 the Potency was inconclusive: 18.5 µM [inhibitor, single point]. In the case of OC(CN1CCN(c2ccc(F)cc2)CC1)c1ccc(Cl)cc1 (stereo not given), the Potency is reported as active: 13.1 µM. With Cc1ccc(-n2nnnc2SC(C)C(N)=O)c(C)c1 (stereo not given) the Potency was inconclusive: 3.7 µM [inhibitor, partial curve, poor fit]. For Oc1ccc(C2C(c3ccccc3)=NN=C(c3ccccc3F)N2O)c(O)c1 (stereo not given), the Potency was inconclusive: 18.5 µM [inhibitor, single point]. For CCN(CC)CCN(C(=O)CCS(=O)(=O)c1ccccc1)c1nc2cc(C)cc(C)c2s1, the Potency was inconclusive: 18.5 µM [inhibitor, single point]. In the case of CCOC(=O)C1(Cc2ccccc2C)CCCN(C(=O)c2ccc(COC)o2)C1 (stereo not given), the Potency is reported as inconclusive: 9.28 µM [inhibitor, single point]. In the case of CCN(Cc1ccccc1)C(=O)CCS(=O)(=O)c1ccc2c(c1)CCN2C(C)=O, the Potency is reported as inconclusive: 0.928 µM [inhibitor, full curve]. With Nc1c(C(=O)CSc2n[nH]c(-c3ccccc3)n2)c(=O)[nH]c(=O)n1C1CC1 the Potency was “inactive”. With Cc1cccc(NS(=O)(=O)c2cccc(C(=O)NCC(c3ccco3)N3CCCCC3)c2)c1 (stereo not given) the Potency was active: 14.7 µM. In the case of Brc1ccccc1-c1nnc(SCc2nc3ccccc3s2)o1, the Potency is reported as “inactive”. In the case of N#CC1=C(N)Oc2n[nH]c(-c3ccc(F)cc3)c2C1c1ccncc1 (stereo not given), the Potency is reported as “inactive”. In the case of COC(=O)C1=C(C)N(CC2CC2)C(=NCCN2CCOCC2)N[C@H]1c1ccccc1, the Potency is reported as “inactive and inconclusive: 20.8 µM [inhibitor, partial curve, poor fit]”. In the case of Cn1c(O)c(N=NC(=O)c2ccco2)c2ccccc21, the Potency is reported as “inactive”. For O=c1[nH]c(=S)[nH]c(O)c1N=Nc1ccc(S(=O)(=O)N2CCc3ccccc32)cc1, the Potency was inconclusive: 10.4 µM [inhibitor, single point]. With CCOC(=O)C1(c2ccccc2)NC(c2ccccc2C)C2C(=O)N(c3ccc4c(c3)OCO4)C(=O)C21 (stereo not given) the Potency was inconclusive: 1.47 µM [inhibitor, partial curve, poor fit]. For Cc1ccc(C)c(OCc2cc(C(=O)N(C)Cc3ccccn3)no2)c1, the Potency was inconclusive: 13.1 µM [inhibitor, single point]. With NS(=O)(=O)c1ccc(Nc2nc(-c3ccc(O)cc3)cs2)cc1 the Potency was “inactive”. With O=C(CN1C(=O)CCOc2ccccc21)Nc1ccc(Cl)c(S(=O)(=O)N2CCOCC2)c1 the Potency was inconclusive: 7.38 µM [inhibitor, partial curve]. For COc1cc(C(=O)NC2(C(F)(F)F)NC(=O)N(CCCc3ccccc3)C2=O)cc(OC)c1OC (stereo not given), the Potency was inconclusive: 14.7 µM [inhibitor, single point]. In the case of CCOC(=O)c1ccc(NS(=O)(=O)c2ccc3c(c2)NC(=O)CCS3)cc1, the Potency is reported as inconclusive: 13.1 µM [inhibitor, single point]. With CN(C)S(=O)(=O)c1ccc(N2CCOCC2)nc1 the Potency was inconclusive: 2.94 µM [inhibitor, full curve, poor fit]. With COc1ccc(C2=NOC(C(=O)Nc3cccnc3Cl)C2)cc1 (stereo not given) the Potency was inconclusive: 18.5 µM [inhibitor, single point]. For CCCCN(CCCC)c1cn[nH]c(=O)c1Cl, the Potency was inconclusive: 10.4 µM [inhibitor, partial curve, poor fit]. For COc1ccc(O)c(C(=O)c2cnc3c(c2)c(-c2ccc(F)cc2)c(C#N)c(=O)n3C)c1, the Potency was inconclusive: 18.5 µM [inhibitor, single point]. In the case of Cc1cc(C(=O)Nc2sc3c(c2C#N)CCCC3)no1, the Potency is reported as “inactive”. With CCc1ccc(NC(=O)C2CCN(S(=O)(=O)c3ccc4c(c3)NC(=O)C(C)S4)CC2)cc1 (stereo not given) the Potency was inconclusive: 18.5 µM [inhibitor, single point]. With CCCCCCSc1ccc(-c2nc3ccccn3c2NCCCC)cc1 the Potency was inconclusive: 18.5 µM [inhibitor, single point]. For CC1(C)CC(=O)C2=C(C1)N(c1ccccc1)C(=O)C2(O)C(F)(F)F (stereo not given), the Potency was “inactive”. With Cc1ccc(-c2cn(C[C@H]3CC[C@@H]([C@@H]4CC[C@H](Cn5cc(-c6ccc(C)cc6)nn5)O4)O3)nn2)cc1 the Potency was “inactive”. In the case of O=C(c1ccc(S(=O)(=O)N2CCOCC2)cc1)N(c1cccc(Cl)c1)C1C=CS(=O)(=O)C1 (stereo not given), the Potency is reported as “inactive”. For CCOC(=O)N1CCN(C(=O)C(CC)n2nc(C)c3sc4ccccc4c3c2=O)CC1 (stereo not given), the Potency was “inactive”. In the case of Cc1ccc(-c2cc(C(F)F)nc(NCC3CCCO3)n2)cc1 (stereo not given), the Potency is reported as “inactive”. In the case of CCOc1ccc(Oc2ccc(Cl)cc2N)cc1, the Potency is reported as “inactive”. With COc1ccc(CCN2CN(S(=O)(=O)c3ccccc3)c3nc4ccccc4nc32)cc1 the Potency was active: 10.4 µM. For OCCN1CCN(Cc2cc(Cl)c3cccnc3c2O)CC1, the Potency was inconclusive: 2.94 µM [inhibitor, partial curve, poor fit]. In the case of Cc1nnc(C)n1/N=C/c1ccc(-c2ccccc2)cc1, the Potency is reported as inconclusive: 0.0928 µM [inhibitor, full curve, poor fit]. In the case of CCOc1ccc(/C=N/n2c(C3CCCCC3)n[nH]c2=S)cc1, the Potency is reported as inconclusive: 13.1 µM [inhibitor, partial curve]. In the case of CC(=O)N(C)c1ccc(NC(=O)c2ccco2)cc1, the Potency is reported as “inactive”. For CCOC(=O)/C(C#N)=C/c1c(N2CCN(c3ccccc3)CC2)nc2c(C)cccn2c1=O, the Potency was inconclusive: 10.4 µM [inhibitor, single point]. For CC(=O)N1N=C(c2ccccc2)OC1(C)CC(=O)Nc1ccccc1 (stereo not given), the Potency was inconclusive: 13.1 µM [inhibitor, partial curve, poor fit]. For CCN(CC(=O)NCc1ccc(Cl)cc1)C(=O)c1ccc(C#N)cc1, the Potency was “inactive”. For CC(=O)Nc1ccc(S(=O)(=O)N2CCC3(CC2)OCCO3)cc1, the Potency was active: 9.28 µM. In the case of N#CCCn1c(SCC(=O)c2c[nH]c3ccccc23)nc2ccccc21, the Potency is reported as inconclusive: 9.28 µM [inhibitor, single point]. For COc1ccc(-c2nc3c(c(=O)c4ccccc4n3C)c(=O)n2Cc2ccccc2)cc1, the Potency was active: 2.94 µM. For CCCCCCCCOC(=O)c1ccccc1C(=O)OCCCCCCCC, the Potency was “inactive”. In the case of O=C(Nc1ccc(N2CCN(C(=O)c3ccc(Cl)cc3)CC2)cc1)c1cccnc1, the Potency is reported as inconclusive: 13.1 µM [inhibitor, partial curve, poor fit]. In the case of Cc1ccc2nc(-c3ccccc3)oc(=O)c2c1, the Potency is reported as inconclusive: 18.5 µM [inhibitor, single point]. With Cc1ccc2cc(C#N)c(N3CCCN(C(=O)c4cnccn4)CC3)nc2c1 the Potency was inconclusive: 8.28 µM [inhibitor, partial curve]. In the case of Cc1nn(C(C)C(=O)NCCN2CCCC2)c(=O)c2c1sc1ccccc12 (stereo not given), the Potency is reported as inconclusive: 18.5 µM [inhibitor, single point]. For COc1ccccc1N1CCN(C(=O)C(Sc2ccccc2)c2ccccc2)CC1 (stereo not given), the Potency was “inactive”. With COc1ccc(S(=O)(=O)N2CCCC(C(=O)N3CCN(c4ccccc4)CC3)C2)cc1Cl (stereo not given) the Potency was inconclusive: 18.5 µM [inhibitor, single point].
Potency means the concentration at half of the fitted maximal effect.
